Consider one molecule from article PMC5009318, “Structural insights into the IgE mediated responses induced by the allergens Hev b 8 and Zea m 12 in their dimeric forms” (Scientific Reports, 2016).

The test deals with recombinant profilin allergen rHev b 8 (isoform Hev b 8.0102) from Hevea brasiliensis (Hevea brasiliensis) (UniProt Q9STB6). As to the kind of experiment: SDS-PAGE under reducing conditions; same samples under reducing conditions; both purified.

These are yes or no findings as the source states them, for the method shown.

B1: recombinant profilin allergen rHev b 8 (isoform Hev b 8.0102) from Hevea brasiliensis (natural protein)
chain: MSWQAYVDDHLMCEIEGNHLSAAAIIGQDGSVWAQSANFPQFKSEEITGIMSDFHEPGTLAPTGLYIGGTKYMVIQGEPGAVIRGKKGPGGVTVKKTNQALIIGIYDEPMTPGQCNMIVERLGDYLIDQGY
notes: Cloned in pET28c; The dimer is held by a disulfide bridge between Cys13 of both chains; also called monomeric rHev b 8; dimeric rHev b 8; source: E. coli Rosetta (DE3), purified (Ni-NTA, enterokinase cleavage, mono Q anion exchange; oligomers separated by SEC)
As to B1, the binding result was “no binding (condition: reducing conditions in SDS-PAGE)”.
